Data as given in PubChem BioAssay AID1508597 (Cure First, 2020)
The deposit covers about 2,100 reagents; shown is an unselected part. 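Calls flag viability under 80% in either arm, not effects specific to rucaparib; the reference for percent is not stated.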 A reagent listed more than once was tested more than once; the source does not tell the runs apart. Reagent sequences are not shown. Not stated in the record: the 100% reference.

Test: 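Survival screen with siRNA in ovarian cancer cells derived from patients, with or without rucaparib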 (primary screen)
Cell system: human ovarian carcinoma lines grown from tumours: OCI-P5x (papillary serous) and OCI-C5x (clear cell)
Reagent: siRNA pool against human genes, 1.25 pmol siRNA per well
Timing: 72 h or 96 h, depending on the cell culture
Challenge: rucaparib 20 µM (about IC30) or vehicle, present until read-out
Measured: 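Luminescent ATP-based viability assay read 72 or 96 h after transfection, depending on culture, given as normalised percent viability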
Scale: viability, normalised: higher = more viable cells remaining
Rule for the call: 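Active when normalised viability falls below 80 percent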
Calls: active = viability under 80%; inactive = viability 80% or more

target gene	rucaparib or vehicle	cell line	technical replicate	viability, normalised (%)	call
MSX1	Rucaparib	OCI-C5x (clear cell)	1	46.9	active
MSX1	Rucaparib	OCI-C5x (clear cell)	2	42.5	active
MSX1	Rucaparib	OCI-C5x (clear cell)	3	46.5	active
MSX1	Rucaparib	OCI-P5x (serous)	1	63	active
MSX1	Rucaparib	OCI-P5x (serous)	2	65	active
MSX1	Rucaparib	OCI-P5x (serous)	3	65.2	active
MSX1	Vehicle	OCI-C5x (clear cell)	1	61.7	active
MSX1	Vehicle	OCI-C5x (clear cell)	2	50	active
MSX1	Vehicle	OCI-C5x (clear cell)	3	48.4	active
MSX1	Vehicle	OCI-P5x (serous)	1	79.8	active
MSX1	Vehicle	OCI-P5x (serous)	2	83	inactive
MSX1	Vehicle	OCI-P5x (serous)	3	82.7	inactive
CXXC1	Rucaparib	OCI-C5x (clear cell)	1	26.8	active
CXXC1	Rucaparib	OCI-C5x (clear cell)	1	46	active
CXXC1	Rucaparib	OCI-C5x (clear cell)	2	56.6	active
CXXC1	Rucaparib	OCI-C5x (clear cell)	2	27.4	active
CXXC1	Rucaparib	OCI-C5x (clear cell)	3	65	active
CXXC1	Rucaparib	OCI-C5x (clear cell)	3	28.7	active
CXXC1	Rucaparib	OCI-P5x (serous)	1	48.6	active
CXXC1	Rucaparib	OCI-P5x (serous)	1	76.7	active
CXXC1	Rucaparib	OCI-P5x (serous)	2	62.4	active
CXXC1	Rucaparib	OCI-P5x (serous)	2	72.6	active
CXXC1	Rucaparib	OCI-P5x (serous)	3	58.1	active
CXXC1	Rucaparib	OCI-P5x (serous)	3	80.7	inactive
CXXC1	Vehicle	OCI-C5x (clear cell)	1	63.8	active
CXXC1	Vehicle	OCI-C5x (clear cell)	1	17.4	active
CXXC1	Vehicle	OCI-C5x (clear cell)	2	48.8	active
CXXC1	Vehicle	OCI-C5x (clear cell)	2	25.4	active
CXXC1	Vehicle	OCI-C5x (clear cell)	3	55.9	active
CXXC1	Vehicle	OCI-C5x (clear cell)	3	32.3	active
CXXC1	Vehicle	OCI-P5x (serous)	1	71.3	active
CXXC1	Vehicle	OCI-P5x (serous)	1	43	active
CXXC1	Vehicle	OCI-P5x (serous)	2	50.5	active
CXXC1	Vehicle	OCI-P5x (serous)	2	60.9	active
CXXC1	Vehicle	OCI-P5x (serous)	3	74.9	active
CXXC1	Vehicle	OCI-P5x (serous)	3	53.4	active

Sorted by “viability, normalised (%)” (ascending): some entries from above.
target gene	rucaparib or vehicle	cell line	technical replicate	viability, normalised (%)	call
CXXC1	Rucaparib	OCI-C5x (clear cell)	1	26.8	active
CXXC1	Rucaparib	OCI-C5x (clear cell)	1	46	active
CXXC1	Rucaparib	OCI-C5x (clear cell)	2	56.6	active
MSX1	Vehicle	OCI-P5x (serous)	3	82.7	inactive
